Screening data

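NB1643 neuroblastoma cells given compounds for 48 hours, with viability read as ATP-driven luminescence from metabolically active cells. Compounds were tested as dilution series reaching roughly 46 µM at the top. Potency is the concentration giving half the fitted maximal cytotoxic effect; a lower value means a more potent compound. Calls come from the fitted curve class and activity score: scores of 40 to 100 are active, 1 to 39 inconclusive, and 0 inactive.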

Values are in µM. Every entry below has the call inconclusive. These entries are mostly ones the record files as inconclusive; other results of the assay are not listed here. A potency from a partial, single-point or poor curve is only a rough figure. Some entries filed as inconclusive have a full curve. Activity scores are not listed here.

compound	potency (µM)	remark
O=C(O)COc1nc(Cl)c(Cl)cc1Cl	43.57	cytotoxic, single point
O=C(C=Cc1ccc(CN(CCO)CCc2c[nH]c3ccccc23)cc1)NO	0.0041	cytotoxic, full curve, poor fit
Cn1cc(C2=C(c3cn(C4CCN(Cc5ccccn5)CC4)c4ccccc34)C(=O)NC2=O)c2ccccc21	3.291	cytotoxic, full curve, poor fit
CC(=O)O[C@H]1C[C@@H]2CC[C@H]3[C@H]4C[C@H]([N+]5(C)CCCCC5)[C@@H](OC(C)=O)[C@@]4(C)CC[C@@H]3[C@@]2(C)C[C@H]1N1CCCCC1	2.614	cytotoxic, partial curve
NC(=O)c1cccc2cn(-c3ccc([C@@H]4CCCNC4)cc3)nc12	14.7	cytotoxic, partial curve
NC(=O)c1ccc(I)c([N+](=O)[O-])c1	49.08	cytotoxic, partial curve, poor fit
CON(C)C(=O)N1N=C(c2cc(F)ccc2F)S[C@]1(CCCN)c1ccccc1	0.0083	cytotoxic, full curve
CCOC(=O)[C@@H](N)Cc1ccc(-c2cc(O[C@H](c3ccc(Cl)cc3-n3ccc(C)n3)C(F)(F)F)nc(N)n2)cc1	26.14	cytotoxic, single point
O=C(NCC1CCCCN1)c1cc(OCC(F)(F)F)ccc1OCC(F)(F)F (stereo not drawn)	3.692	cytotoxic, full curve
Cc1ccc(C(=O)Oc2ccc(C(O)CNC(C)(C)C)cc2OC(=O)c2ccc(C)cc2)cc1 (stereo not drawn)	32.91	cytotoxic, single point
Cn1cnc2c(F)c(Nc3ccc(Br)cc3Cl)c(C(=O)NOCCO)cc21	20.76	cytotoxic, single point
Cc1nc(N)nc(N)c1-c1ccc(Cl)c(Cl)c1	6.566	cytotoxic, full curve, poor fit
COc1cccc2c1C(=O)c1c(O)c3c(c(O)c1C2=O)C[C@@](O)(C(=O)CO)C[C@@H]3O[C@H]1C[C@H](N)[C@H](O)[C@H](C)O1	0.6566	cytotoxic, full curve
Cc1cc(Nc2ncc3c(n2)N(C)C(=O)N(c2cc(NC(=O)c4cccc(C(F)(F)F)c4)ccc2C)C3)n(C)n1	0.3291	cytotoxic, full curve
CC(C(C)N1CC(=O)NC(=O)C1)N1CC(=O)NC(=O)C1 (stereo not drawn)	8.266	cytotoxic, full curve
CNC(=O)c1nn(C)c2c1C(C)(C)Cc1cnc(Nc3ccc(N4CCN(C)CC4)cc3)nc1-2	0.4649	cytotoxic, full curve
O=C(O)Cc1ccccc1	29.33	cytotoxic, single point
COc1ccc(F)c(F)c1C(=O)c1cnc(NC2CCN(S(C)(=O)=O)CC2)nc1N	0.4649	cytotoxic, full curve
N[C@@]1(C(=O)O)CS(=O)(=O)[C@H]2[C@H](C(=O)O)[C@H]21	0.4143	cytotoxic, full curve
Oc1ccc(-c2ccc(-c3cc(Nc4cccc(CNC5CC5)c4)n[nH]3)cc2)c(O)c1	2.076	cytotoxic, full curve
CO[C@H]1C(=O)[C@]2(C)[C@@H](OC)C[C@H]3OC[C@@]3(OC(C)=O)[C@H]2[C@H](OC(=O)c2ccccc2)[C@]2(O)C[C@H](OC(=O)[C@H](O)[C@@H](NC(=O)OC(C)(C)C)c3ccccc3)C(C)=C1C2(C)C	0.0015	cytotoxic, full curve, poor fit
C=C1C(=CC=C2CCC[C@]3(C)[C@@H]([C@H](C)C=C[C@H](C)C(C)C)CC[C@@H]23)C[C@@H](O)C[C@@H]1O	32.91	cytotoxic, single point
CC(NC(C)(C)C)C(=O)c1cccc(Cl)c1 (stereo not drawn)	13.1	cytotoxic, partial curve, poor fit
CC(C)NC[C@@H](C(=O)N1CCN(c2ncnc3c2[C@H](C)C[C@H]3O)CC1)c1ccc(Cl)cc1	13.1	cytotoxic, partial curve, poor fit
CS(=O)(=O)CCNCc1ccc(-c2ccc3ncnc(Nc4ccc(OCc5cccc(F)c5)c(Cl)c4)c3c2)o1	23.3	cytotoxic, partial curve, poor fit
Cc1cc(C(=O)N2CCN(c3cccc(Cl)c3)CC2)n(-c2ccccc2)n1	32.91	cytotoxic, partial curve, poor fit
COc1ccc(C[C@@H](C)[C@@H](C)Cc2ccc(OC)c(OC)c2)cc1OC	16.49	cytotoxic, partial curve
O=C1NCCc2[nH]c(-c3ccncc3)cc21	1.851	cytotoxic, full curve, poor fit

The last 2 entries again:

* COc1ccc(C[C@@H](C)[C@@H](C)Cc2ccc(OC)c(OC)c2)cc1OC | potency 16.49 µM (cytotoxic, partial curve)
* O=C1NCCc2[nH]c(-c3ccncc3)cc21 | potency 1.851 µM (cytotoxic, full curve, poor fit)

Source: PubChem BioAssay AID1347109 (NCATS, 2019).